Results on 37 compounds are retold here after the supplement of paper PMC3682954.

This assay has as its system RAW 264.7. Put plainly: HMGB1-induced TNF-alpha production relative to HMGB1-stimulated control; higher = more TNF-alpha secretion (less inhibition). Conditions: stimulus: HMGB1 5 ug/ml, 18 h.
The mark [1] stands for this setting: compound concentration: 1 ug/ml.

Counter-ions that a name gives are not always drawn. ± gives the standard deviation of the averaged measurements. Some of the results follow. Many values rest on one well or one pass, so single values are uncertain.

For `CN1CCN(C2=Nc3cc(F)ccc3Cc3ccccc32)CC1` [Fluperlapine], the “HMGB1-induced TNF-alpha production” value (compound concentration: 3 uM) was determined as 86 ± 20%.

`O=c1c(O)c(-c2ccc(O)cc2)oc2cc(O)ccc12`: under setting [1], the “HMGB1-induced TNF-alpha production” value is 39.3%.

Take `COc1cc([S+](C)[O-])ccc1-c1nc2cccnc2[nH]1` (stereo not drawn) [Sulmazole]: the “HMGB1-induced TNF-alpha production” value (compound concentration: 3 uM) stood at 84.2%.

`COc1cc([S+](C)[O-])ccc1-c1nc2cccnc2[nH]1` (stereo not drawn): the “HMGB1-induced TNF-alpha production” value (compound concentration: 3 uM) was found to be 76.6%.

For `COc1ccc(-c2cc(=O)c3c(O)c(OC)c(O[C@@H]4O[C@H](CO[C@@H]5O[C@@H](C)[C@H](O)[C@@H](O)[C@H]5O)[C@@H](O)[C@H](O)[C@H]4O)cc3o2)cc1` [Pectolinarin], the “HMGB1-induced TNF-alpha production” value under setting [1] is 63.6%.

`C(=C\c1ccccc1)/CN1CCN(C(c2ccccc2)c2ccccc2)CC1` [Cinnarizine]: the “HMGB1-induced TNF-alpha production” value (compound concentration: 3 uM) came to 71.5 ± 20%.

Take `CO[C@H]1/C=C/O[C@@]2(C)Oc3c(C)c(O)c4c(O)c(cc(O)c4c3C2=O)NC(=O)/C(C)=C\C=C\[C@H](C)[C@H](O)[C@@H](C)[C@@H](O)[C@@H](C)[C@H](OC(C)=O)[C@@H]1C`: the “HMGB1-induced TNF-alpha production” value (compound concentration: 3 uM) is 85.2%.

`CO[C@H]1/C=C/O[C@@]2(C)Oc3c(C)c(O)c4c(O)c(cc(O)c4c3C2=O)NC(=O)/C(C)=C\C=C\[C@H](C)[C@H](O)[C@@H](C)[C@@H](O)[C@@H](C)[C@H](OC(C)=O)[C@@H]1C` [Rifamycin SV sodium salt]: the “HMGB1-induced TNF-alpha production” value under setting [1] was determined as 68.7%.

With `O=C(C1CCCCC1)N1CC(=O)N2CCc3ccccc3C2C1` (stereo not drawn), the “HMGB1-induced TNF-alpha production” value (compound concentration: 3 uM) came out at 90.1%.

As for `O=C(C1CCCCC1)N1CC(=O)N2CCc3ccccc3C2C1` (stereo not drawn) [Praziquantel], the “HMGB1-induced TNF-alpha production” value (compound concentration: 3 uM) was 91.9 ± 19%.

`OC[C@H]1O[C@H](O[C@]2(CCl)O[C@H](CCl)[C@@H](O)[C@@H]2O)[C@H](O)[C@@H](O)[C@H]1Cl`: the “HMGB1-induced TNF-alpha production” value (compound concentration: 3 uM) was 88%.

With `O=C(O)c1cc(=O)cc(C(=O)O)[nH]1` [Chelidamic acid], the “HMGB1-induced TNF-alpha production” value (compound concentration: 3 uM) is 85.8%.

Consider `Nc1nc2ccc(OC(F)(F)F)cc2s1` [Riluzole hydrochloride], for which the “HMGB1-induced TNF-alpha production” value (compound concentration: 3 uM) amounted to 88.8%.

With `Nc1nc2ccc(OC(F)(F)F)cc2s1` [Riluzole], the “HMGB1-induced TNF-alpha production” value (compound concentration: 3 uM) was determined as 106 ± 3.7%.

Consider `COc1ccc2c(c1)c(CC(=O)O)c(C)n2C(=O)c1ccc(Cl)cc1`, for which the “HMGB1-induced TNF-alpha production” value (compound concentration: 3 uM) stood at 91.7%.

With `COc1ccc2c(c1)c(CC(=O)O)c(C)n2C(=O)c1ccc(Cl)cc1` [Indomethacin], the “HMGB1-induced TNF-alpha production” value (compound concentration: 3 uM) is 93.1 ± 18%.

Turning to `COc1ccc(-c2cc(=O)c3ccc4ccccc4c3o2)cc1OC` [3',4'-Dimethoxy-a-naphthoflavone], the “HMGB1-induced TNF-alpha production” value under setting [1] turned out to be 98.3%.

Turning to `CCOC(=O)C1(CCCCCCOc2ccc(Cl)cc2)CO1` (stereo not drawn), where the note is “compound concentration: 3 uM”, the “HMGB1-induced TNF-alpha production” value turned out to be 93.9%.

With `CC(C)(C)NCC(O)COc1cccc2c1CCC(=O)N2` (stereo not drawn) [Carteolol hydrochloride], the “HMGB1-induced TNF-alpha production” value (compound concentration: 3 uM) is 65.6%.

As to `C=C1c2c(Cl)ccc(O)c2C(=O)C2=C(O)[C@]3(O)C(=O)C(C(N)=O)=C(O)[C@@H](N(C)C)[C@@H]3[C@@H](O)[C@H]12.O=C(O)c1cc(S(=O)(=O)O)ccc1O`, the “HMGB1-induced TNF-alpha production” value (compound concentration: 3 uM) turned out to be 100%.

With `C=C1c2c(Cl)ccc(O)c2C(=O)C2=C(O)[C@]3(O)C(=O)C(C(N)=O)=C(O)[C@@H](N(C)C)[C@@H]3[C@@H](O)[C@H]12.O=C(O)c1cc(S(=O)(=O)O)ccc1O` [Meclocycline sulfosalicylate], where the note is “compound concentration: 3 uM”, the “HMGB1-induced TNF-alpha production” value came to 83.3%.

For `CC(C)C[C@H](NC(=O)[C@H](O)[C@H](N)Cc1ccccc1)C(=O)O` [Epibestatin hydrochloride], the “HMGB1-induced TNF-alpha production” value (compound concentration: 3 uM) was found to be 92.5%.

In the case of `CC(=O)NCCCS(=O)(=O)O`, the “HMGB1-induced TNF-alpha production” value (compound concentration: 3 uM) worked out at 97.7%.

As to `COc1ccc2c(c1OC)C(=O)O[C@@H]2[C@H]1c2c(cc3c(c2OC)OCO3)CCN1C` [Noscapine hydrchloride], the “HMGB1-induced TNF-alpha production” value (compound concentration: 3 uM) worked out at 123%.

Regarding `COc1ccc2c(c1OC)C(=O)O[C@@H]2[C@H]1c2c(cc3c(c2OC)OCO3)CCN1C` [Noscapine hydrochloride hydrate  (Narcotine)], the “HMGB1-induced TNF-alpha production” value under setting [1] worked out at 73.2%.

`COc1ccc2c(c1OC)C(=O)O[C@@H]2[C@H]1c2c(cc3c(c2OC)OCO3)CCN1C`: where the note is “compound concentration: 3 uM”, the “HMGB1-induced TNF-alpha production” value stood at 100%.

For the compound `CCCCCCCCCCCCCCCC(=O)OC(CC(=O)O)C[N+](C)(C)C` (racemic) [Palmitoyl-DL-Carnitine chloride], the “HMGB1-induced TNF-alpha production” value (compound concentration: 3 uM) is 98.4%.

Consider `CCOC(=O)O[C@]1(C(=O)COC(=O)CC)CC[C@H]2[C@@H]3CCC4=CC(=O)C=C[C@]4(C)[C@H]3[C@@H](O)C[C@@]21C` [Prednicarbate], for which the “HMGB1-induced TNF-alpha production” value (compound concentration: 3 uM) was determined as 56.3%.

For `CC(=O)NS(=O)(=O)c1ccc(NC(=O)c2ccccc2C(=O)O)cc1`, the “HMGB1-induced TNF-alpha production” value (compound concentration: 3 uM) stood at 101%.

Take `CC[C@H](C)[C@H](N)C1=N[C@H](C(=O)N[C@@H](CC(C)C)C(=O)N[C@H](CCC(=O)O)C(=O)N[C@H](C(=O)N[C@H]2CCCCNC(=O)[C@H](CC(N)=O)NC(=O)[C@@H](CC(=O)O)NC(=O)[C@H](Cc3cnc[nH]3)NC(=O)[C@@H](Cc3ccccc3)NC(=O)[C@H]([C@@H](C)CC)NC(=O)[C@@H](CCCN)NC2=O)[C@@H](C)CC)CS1` [Bacitracin]: the “HMGB1-induced TNF-alpha production” value (compound concentration: 3 uM) stood at 111%.

Take `CC[C@H](C)[C@H](N)C1=N[C@H](C(=O)N[C@@H](CC(C)C)C(=O)N[C@H](CCC(=O)O)C(=O)N[C@H](C(=O)N[C@H]2CCCCNC(=O)[C@H](CC(N)=O)NC(=O)[C@@H](CC(=O)O)NC(=O)[C@H](Cc3cnc[nH]3)NC(=O)[C@@H](Cc3ccccc3)NC(=O)[C@H]([C@@H](C)CC)NC(=O)[C@@H](CCCN)NC2=O)[C@@H](C)CC)CS1`: the “HMGB1-induced TNF-alpha production” value (compound concentration: 3 uM) was 92.2%.

Take `O=C(CCc1ccc(O)cc1)c1c(O)cc(O)cc1O` [Phloretin]: the “HMGB1-induced TNF-alpha production” value by setting is: under setting [1], 85.1 ± 20%; (compound concentration: 3 uM) 110%.

On to `CN1CCN(CCCN2c3ccccc3Sc3ccc(C(F)(F)F)cc32)CC1` [Trifluoperazine dihydrochloride], for which the “HMGB1-induced TNF-alpha production” value (compound concentration: 3 uM) stood at 87 ± 11%.

Consider `CN1CCN(CCCN2c3ccccc3Sc3ccc(C(F)(F)F)cc32)CC1` [Trifluoperazine 2HCl], for which the “HMGB1-induced TNF-alpha production” value (compound concentration: 3 uM) amounted to 83.2%.

In the case of `CN(C)CCN1C(=O)c2ccccc2N(C)c2ccccc21` [Dibenzepine hydrochloride], the “HMGB1-induced TNF-alpha production” value (compound concentration: 3 uM) was 75.8%.

As to `COc1ccc(OC)c(C(O)CNC(=O)CN)c1` (stereo not drawn) [Midodrine hydrochloride], the “HMGB1-induced TNF-alpha production” value (compound concentration: 3 uM) was 54%.

For `COc1ccc(OC)c(C(O)CNC(=O)CN)c1` (stereo not drawn), the “HMGB1-induced TNF-alpha production” value (compound concentration: 3 uM) turned out to be 88.9%.
